Results are given in words; binding and its absence hold for the method and conditions named.
Tests used:
[1] = target: CTD(GbacOCP3) apoform (Gloeobacter kilaueensis JS1); assay: SEC
[2] = target: CTD(GbacOCP3) holoform (Gloeobacter kilaueensis JS1); assay: SEC

B1: Fluorescence Recovery Protein from Synechocystis sp. PCC 6803 (protein, UniProt P74103 1-109)
chain: MLQTAEAPWSQAETQSAHALFRKAYQRELDGLLATVQAQASQITQIDDLWKLHDFLSAKRHEIDGKYDDRQSVIIFVFAQLLKEGLVQAEELTFLAADKQSKIKALARL
In the case of B1, the binding [1] is reported as “no binding” and the binding [2] is reported as “no binding”.
